Data as given in patent publication EP0252380B1, “Antibiotic LL-E19020 alpha and beta” (AMERICAN CYANAMID COMPANY, priority 1986, dated 1988).
The name of at least one read-out is uncertain.

Tested on: In Vitro Rumen Fermentation
Assay: Propionate enhancement activity during in vitro rumen fermentation
Type: cell-based, steer
Protocol: The drugs are dissolved or suspended (sonified if necessary) in a 0.1% Tween 20-ethanol-water vehicle and 25-50 ul is added to the incubation. The reaction is terminated with 6N HCl and centrifuged at 20,000 x g. Alliquots of the superinatant are analyzed for volatile fatty acid (VFA) content by gas-liquid chromatography.

AVOPARCIN [reference compound]
% DECREASE FROM CONTROL A:P (Table X, 1.0 PPM): 10.2% | % DECREASE FROM CONTROL A:P (Table X, 2.000 PPM): 15.9% | % DECREASE FROM CONTROL A:P (Table X, 4.0 PPM): 19.8% | % DECREASE FROM CONTROL A:P (Table X, 8.0 PPM): 21.3% | % DECREASE FROM CONTROL A:P (Table XI, 1.0 PPM): 7.6% | % DECREASE FROM CONTROL A:P (Table XI, 2.0 PPM): 9.4% | % DECREASE FROM CONTROL A:P (Table XI, 4.0 PPM): 13.1% | % DECREASE FROM CONTROL A:P (Table XI, 8.0 PPM): 14.1%
